# According to PubChem BioAssay AID504834 (National Center for Advancing Translational Sciences (NCATS), 2011):
# Hit rate of the full screen: of about 320,000 compounds, about 22,000 (6.9%) were called active. Inconclusive results, whose numbers are uncertain, are shown with a selection of clear calls. Calls come from the whole dose curve; as a rule, active = well fitted inhibition curve with a large enough effect; inconclusive = small, poorly fitted or top-dose-only effect, or another doubt; inactive = no such curve, though single readings can be large or run the other way. Potencies of inconclusive entries are doubtful fits and often do not repeat.
# Experiment: Primary qHTS for delayed death inhibitors of the malarial parasite plastid, 96 hour incubation
# Conditions: P. falciparum luciferase reporter growth; series mostly up to 28.7 µM; activity change, negative = inhibition: at the top concentration
# How it was run: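 Infected RBCs, 2% Hct / 0.05% parasitemia final; luciferase-reporter P. falciparum; cpd 96 h, 37 C, 5% CO2; luciferase detection reagent; luminescence.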
# % is set by controls: 0 for no effect and ±100 for the full control effect; potency is the fitted concentration of half-maximal effect.
Structure (SMILES),"activity change, negative = inhibition",Potency
CC1CN(C(=O)c2cc(S(=O)(=O)N3CCCC3)c(Cl)cc2Cl)CC(C)O1 (stereo not given),inactive: -1.43%,
Cc1ccc2c(c1)C(CCN)C(=O)N2Cc1ccccc1 (stereo not given),,"inconclusive: 5.22 µM [inhibitor, partial curve, poor fit]"
C=CCSc1nc2ccsc2c(=O)n1-c1cccnc1,,"inconclusive: 18.5 µM [inhibitor, single point]"
CCN(CC)S(=O)(=O)c1ccc(N2CCN(S(=O)(=O)c3ccccc3C#N)CC2)nc1,,"inconclusive: 14.7 µM [inhibitor, single point]"
CCN(C(=O)c1cc2c(=O)[nH]c3ccc(C)cc3c2s1)c1ccc(F)cc1,,"inconclusive: 16.5 µM [inhibitor, single point]"
Cc1ccccc1Cn1c(=N)n(CC(=O)c2ccc([N+](=O)[O-])cc2)c2ccccc21,inactive: 17.4%,
Cn1c(SCC(=O)Nc2ccc(NC(=O)c3ccccc3F)cc2)nnc1-c1ccncc1,,"inconclusive: 4.65 µM [inhibitor, partial curve, poor fit]"
CCOc1cc(N2CCOCC2)c(OCC)cc1NC(=O)C(C)C,,"inconclusive: 14.7 µM [inhibitor, single point]"
CCOc1ccc(NC(=O)C2CCN(C(=O)N3CCOc4ccccc43)CC2)cc1,,"inconclusive: 18.5 µM [inhibitor, single point]"
CCCc1n(CC)c2ccccc2[n+]1CC(O)COC1CCCCC1 (stereo not given),inactive: 22.4%,
Nc1nc(N)c(-c2ccccc2)s1,,"inconclusive: 1.51 µM [inhibitor, partial curve, poor fit]"
O=C(Nc1ccc(NC(=S)NC(=O)c2cccs2)cc1)c1ccco1,inactive: 12.2%,
CCCNC(=O)CCn1nc(-c2ccc(C)cc2)c2ccccc2c1=O,inactive: -7.52%,
COc1cc(NC(=O)COC(=O)CC(C)(C)C)c(C)cc1[N+](=O)[O-],,"inconclusive: 18.5 µM [inhibitor, single point]"
CCCCCOc1ccc(C2C(C(=O)c3ccc(C)o3)=C(O)C(=O)N2c2cc(C)on2)cc1 (stereo not given),,"inconclusive: 18.5 µM [inhibitor, single point]"
N#Cc1c(SCC(=O)O)nc(-c2ccccc2)c2c1CCCC2,,"inconclusive: 0.0657 µM [inhibitor, full curve, poor fit]"
COc1ccc(-c2[nH]n(-c3ccc([N+](=O)[O-])cc3)c(=O)c2C=NCC2CCCO2)cc1 (stereo not given),,"inconclusive: 1.04 µM [inhibitor, partial curve, poor fit]"
O=C(N/N=C/c1cccc(C(F)(F)F)c1)c1ccc(O)cc1,,"inconclusive: 3.7 µM [inhibitor, single point]"
O=S(=O)(NCc1nc2ccccc2[nH]1)c1ccccc1,inactive: 52%,
O=C(Nc1ccc(Cl)cn1)c1ccc2c(Cl)c3c(nc2c1)CCC3,inactive: 261%,
C/C=C/c1ccc(OCC(=O)Nc2cc(S(=O)(=O)N3CCOCC3)ccc2N2CCCC2)c(OC)c1,,"inconclusive: 8.28 µM [inhibitor, partial curve, poor fit]"
Cn1c(=O)c2c(nc(CN3CCN(c4ccc(F)cc4)CC3)n2Cc2ccccc2F)n(C)c1=O,,"inconclusive: 1.47 µM [inhibitor, full curve, poor fit]"
CC1(NC(=O)c2cccc(S(=O)(=O)N3CCCc4ccccc43)c2)CCS(=O)(=O)C1 (stereo not given),,"inconclusive: 9.28 µM [inhibitor, single point]"
O=C(N/N=C\c1cccnc1)c1cc(-c2ccccc2)nc2c(Cl)cccc12,,"inconclusive: 13.1 µM [inhibitor, partial curve]"

Structure (SMILES),"activity change, negative = inhibition",Potency
Cc1cc(C(C)(C)C)cc(C)c1S(=O)(=O)N1CC(=O)Nc2ccccc21,,"inconclusive: 18.5 µM [inhibitor, single point]"
COC(=O)c1sc(NC(=O)COc2cccnc2[N+](=O)[O-])c(C(=O)OC)c1C,,"inconclusive: 10.4 µM [inhibitor, single point]"
COc1ccccc1CNS(=O)(=O)CCNC(=O)c1ccccc1,inactive: 5.62%,
C=CCN(C(=O)c1csnn1)C(C(=O)NC1CCCC1)c1c(F)cccc1Cl (stereo not given),,"inconclusive: 18.5 µM [inhibitor, single point]"
COc1cccc(C2CN(c3ccc(F)cc3F)N=C2c2cccs2)c1OC (stereo not given),,active: 11.7 µM
CC(NC(=O)c1ccccc1Cl)C1CC2CCC1C2 (stereo not given),inactive: 2.96%,
O=C(CSc1ccccc1C(=O)O)NC1CCCCCC1,,"inconclusive: 4.15 µM [inhibitor, single point]"
CC1(C)CC(=O)C=C(Nc2ccc(O)c(C(=O)O)c2)C1,,"inconclusive: 13.1 µM [inhibitor, single point]"
Cc1cc2nnc(SCC(=O)NCc3cccs3)n2c2ccccc12,,"inconclusive: 11.7 µM [inhibitor, single point]"
OC(COc1ccc(F)cc1Cl)CN1CCc2ccccc2C1 (stereo not given),inactive: 5.53%,
Cc1ccc(NC(=S)N(CCN(C)C)Cc2cc3cc(C)ccc3[nH]c2=O)cc1,,"inconclusive: 9.28 µM [inhibitor, partial curve, poor fit]"
CC(C)NC(=O)c1onc(CSc2cccc(F)c2)c1C(=O)O,,"inconclusive: 16.5 µM [inhibitor, single point]"
CCn1cc(C(=O)NCC(C)C)c(=O)c2cc(F)c(N3CCN(C)CC3)cc21,inactive: -17.6%,
CCOc1cc(/C=C2\SC(=O)N=C2N)ccc1O,,"inconclusive: 3.29 µM [inhibitor, partial curve, poor fit]"
O=C(CCc1ccccc1)NCCCNC(=O)CCc1ccccc1,inactive: -16.7%,
COc1ccc(C)cc1NC(=O)CSc1nc2ccccc2nc1N1CC(C)OC(C)C1 (stereo not given),,"inconclusive: 13.1 µM [inhibitor, single point]"
O=C(NCCC(=O)N1CCN(S(=O)(=O)c2ccccc2F)CC1)Nc1ccccc1,,"inconclusive: 0.828 µM [inhibitor, partial curve, poor fit]"
O=C(Nc1ccc(Br)cc1)C1CCCN(S(=O)(=O)c2cccnc2)C1 (stereo not given),,"inconclusive: 6.57 µM [inhibitor, partial curve, poor fit]"
O=C(NCCCNC(=O)c1ccco1)c1ccc(F)cc1,inactive: 15.6%,
Cc1ccc(S(=O)(=O)C(C#N)c2nc3ccccc3nc2N2CC(C)OC(C)C2)cc1C (stereo not given),,"inconclusive: 18.5 µM [inhibitor, partial curve, poor fit]"
COc1cc(Br)cc(/C=N/NC(=O)Cc2ccc(C(F)(F)F)cc2[N+](=O)[O-])c1O,,"inconclusive: 18.5 µM [inhibitor, single point]"
C#CCNC(=O)C1=C[C@@H](c2ccccc2)[C@H](CCCO)[C@@H](OCC)O1,,"inconclusive: 0.0657 µM [inhibitor, full curve, poor fit]"
O=S(NCc1ccccc1)C12CC3CC(CC(C3)C1)C2 (stereo not given),inactive: 167%,
CCOC(=O)N1CCC(N2C(=O)c3ccccc3C2Nc2c(C)cccc2C)CC1 (stereo not given),,"inconclusive: 18.5 µM [inhibitor, single point]"

Structure (SMILES),"activity change, negative = inhibition",Potency
CCOc1ccc(OCC)c(NC(=O)CSc2nc3c(c(=O)n(C)c(=O)n3C)n2C(C)C)c1,,active: 3.29 µM
Cc1ccccc1NC1=C(Cl)C(=O)OC1OC(=O)c1ccccc1C (stereo not given),,"inconclusive: 18.5 µM [inhibitor, single point]"
N/C(COc1ccc(Cl)cc1Cl)=N\O,,"inconclusive: 0.0033 µM [inhibitor, full curve, poor fit]"
CCCOc1ccc(CNC(=O)Cn2c(=O)oc3ccccc32)cc1,,"inconclusive: 0.165 µM [inhibitor, full curve, poor fit]"
O=C(Nc1ccc(Cl)cc1)c1ccc(Br)cc1F,inactive: 138%,
CCN(C(=O)c1cc2cc(OC)ccc2oc1=O)c1ccccc1,inactive: -4.71%,
Nc1ccccc1C(=O)NNC(=O)C(=O)/C=C(\O)c1ccccc1,inactive: 167%,
O=C1CC(O)(C(F)F)Oc2ccc3ccccc3c21 (stereo not given),inactive: 19.4%,
COc1cc(C(=O)NNC(=O)C2CCCC2)cc(OC)c1OC,inactive: 26%,
COc1cc(NC(=O)Cn2cnc(S(=O)(=O)N3CCCCC3)c2)cc(OC)c1OC,,"inconclusive: 18.5 µM [inhibitor, single point]"
CCOC(=O)C1CCN(CC(=O)Nc2cc(S(=O)(=O)N3CCOCC3)ccc2C)CC1,,"inconclusive: 5.86 µM [inhibitor, partial curve]"
CCCc1cc2c(=O)c(-c3ccccn3)c(C)oc2cc1O,,active: 9.28 µM
CCCCC(C(=O)NC1CCCC1)N(C(=O)c1snc(C(N)=O)c1N)c1ccc(OCC)cc1 (stereo not given),inactive: 1.44%,
COc1ccccc1C(=O)Nc1cc(C)c(OCC(=O)N2CCOCC2)c(C)c1,,"inconclusive: 10.4 µM [inhibitor, partial curve, poor fit]"
O=C(COc1ccc(Cl)cc1Cl)N/N=C/c1ccc[nH]1,inactive: 9.74%,
COc1ccccc1CNC(=O)CS(=O)(=O)c1ccc(C)cc1,,"inconclusive: 18.5 µM [inhibitor, single point]"
CN(C)CCNC(=O)c1onc(CSc2ccc(F)c(F)c2)c1C(=O)NCCN(C)C,,active: 6.57 µM
S=C(Nc1ccc(Cl)cc1)NC1CC2CCCC(C1)N2C1CCCC1 (stereo not given),,active: 11.7 µM
COc1ccc([C@H]2[C@H](C(=O)OC(C)(C)C)N3N=Cc4ccccc4C3C23C(=O)c2ccccc2C3=O)c(OC)c1 (stereo not given in full),,active: 1.04 µM
CCOc1cccc(C=NCCc2ccc(OC)c(OC)c2)c1O,,"inconclusive: 11.7 µM [inhibitor, single point]"
CNC(=O)c1ccc(-c2ccc(F)cc2)s1,inactive: -74%,
OCCC1CN(Cc2cnc(-c3ccccc3)s2)CCN1C1CCCCC1 (stereo not given),,"inconclusive: 10.4 µM [inhibitor, single point]"

# For reference, some entries already given.
Structure (SMILES),"activity change, negative = inhibition",Potency
CCN(C(=O)c1cc2cc(OC)ccc2oc1=O)c1ccccc1,inactive: -4.71%,
Nc1ccccc1C(=O)NNC(=O)C(=O)/C=C(\O)c1ccccc1,inactive: 167%,
O=C1CC(O)(C(F)F)Oc2ccc3ccccc3c21 (stereo not given),inactive: 19.4%,
COc1cc(C(=O)NNC(=O)C2CCCC2)cc(OC)c1OC,inactive: 26%,
